Results are given in words; binding and its absence hold for the method and conditions named. Binding seen in cells or lysates may run through a third protein. These calls come from enrichment with a bait or labelling near it, and not all partners need be listed. Tags and fused reporters may be left off the sequences shown.
Molecular target: T1, GST-AIMP2-DX2 fragment DM1 (human) (UniProt Q13155)
T1 sequence: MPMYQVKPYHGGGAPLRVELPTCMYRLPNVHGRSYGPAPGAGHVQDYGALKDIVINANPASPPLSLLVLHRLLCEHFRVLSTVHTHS
Assay: GST pull-down from 293T lysate, mass spectrometry

The chains behind the UniProt entries cited, without tags or fusion partners. Residues count along the entry.
UniProt P38646, residues 47-679: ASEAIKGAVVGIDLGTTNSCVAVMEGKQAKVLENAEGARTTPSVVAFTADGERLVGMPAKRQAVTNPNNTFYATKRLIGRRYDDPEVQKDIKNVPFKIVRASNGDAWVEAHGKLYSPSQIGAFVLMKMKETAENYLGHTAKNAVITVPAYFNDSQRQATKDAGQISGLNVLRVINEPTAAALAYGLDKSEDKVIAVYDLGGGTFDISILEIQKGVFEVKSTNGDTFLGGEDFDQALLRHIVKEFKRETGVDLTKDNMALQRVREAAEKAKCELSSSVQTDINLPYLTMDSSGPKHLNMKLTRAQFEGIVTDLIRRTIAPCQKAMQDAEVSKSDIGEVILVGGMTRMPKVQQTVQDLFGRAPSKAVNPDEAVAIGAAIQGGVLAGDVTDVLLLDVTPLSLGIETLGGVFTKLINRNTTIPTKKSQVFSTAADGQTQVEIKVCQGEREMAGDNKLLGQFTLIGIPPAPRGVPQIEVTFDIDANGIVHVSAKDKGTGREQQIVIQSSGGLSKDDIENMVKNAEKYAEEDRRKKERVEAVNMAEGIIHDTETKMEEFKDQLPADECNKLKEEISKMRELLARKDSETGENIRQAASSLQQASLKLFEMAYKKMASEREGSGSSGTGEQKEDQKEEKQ
UniProt P11021, residues 19-654: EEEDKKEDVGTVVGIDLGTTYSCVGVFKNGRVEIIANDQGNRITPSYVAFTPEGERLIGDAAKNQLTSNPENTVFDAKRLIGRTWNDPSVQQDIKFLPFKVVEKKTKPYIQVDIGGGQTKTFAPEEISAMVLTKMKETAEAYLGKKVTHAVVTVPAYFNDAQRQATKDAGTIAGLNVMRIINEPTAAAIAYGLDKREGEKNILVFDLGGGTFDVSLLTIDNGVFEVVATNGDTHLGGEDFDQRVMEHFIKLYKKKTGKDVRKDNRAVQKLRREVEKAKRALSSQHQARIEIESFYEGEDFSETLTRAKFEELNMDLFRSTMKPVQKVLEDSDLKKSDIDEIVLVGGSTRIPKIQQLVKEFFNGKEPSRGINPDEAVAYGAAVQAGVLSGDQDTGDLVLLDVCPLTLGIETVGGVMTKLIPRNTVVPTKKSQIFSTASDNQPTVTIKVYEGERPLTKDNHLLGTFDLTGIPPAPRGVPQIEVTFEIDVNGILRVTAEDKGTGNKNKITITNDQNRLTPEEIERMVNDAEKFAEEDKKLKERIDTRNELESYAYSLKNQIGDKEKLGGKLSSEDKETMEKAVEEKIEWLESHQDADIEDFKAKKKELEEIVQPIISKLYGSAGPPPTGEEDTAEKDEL

binding | Substance
binds | HSPA9 (from UniProt P38646 47-679)
binds | HSPA5 (from UniProt P11021 19-654)

From US20190033295A1
